Data reported in paper PMC10908107.
These are yes or no findings as the source states them, for the method shown. In cells and extracts the contact can be indirect. Some binding calls cover weakened binding; strength is not graded here. Each block holds one molecule with its values, some of them ahead of it.

Sequences of proteins named here, by UniProt entry; tags and fusion partners are left off.
UniProt P38432: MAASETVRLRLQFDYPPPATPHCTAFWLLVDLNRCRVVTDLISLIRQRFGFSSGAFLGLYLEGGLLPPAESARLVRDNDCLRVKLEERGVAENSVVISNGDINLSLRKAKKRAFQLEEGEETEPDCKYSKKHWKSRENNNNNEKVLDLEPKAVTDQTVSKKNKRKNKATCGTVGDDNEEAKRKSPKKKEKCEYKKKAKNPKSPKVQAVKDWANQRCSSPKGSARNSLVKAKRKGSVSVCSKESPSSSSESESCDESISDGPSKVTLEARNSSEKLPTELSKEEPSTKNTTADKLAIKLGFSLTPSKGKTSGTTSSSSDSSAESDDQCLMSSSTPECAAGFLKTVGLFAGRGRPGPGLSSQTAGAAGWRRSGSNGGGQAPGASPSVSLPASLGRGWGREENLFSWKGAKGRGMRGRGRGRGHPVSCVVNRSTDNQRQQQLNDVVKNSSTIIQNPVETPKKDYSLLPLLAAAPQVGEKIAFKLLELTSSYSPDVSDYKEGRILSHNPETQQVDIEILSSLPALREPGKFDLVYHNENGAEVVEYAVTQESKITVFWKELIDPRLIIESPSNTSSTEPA
UniProt O14746: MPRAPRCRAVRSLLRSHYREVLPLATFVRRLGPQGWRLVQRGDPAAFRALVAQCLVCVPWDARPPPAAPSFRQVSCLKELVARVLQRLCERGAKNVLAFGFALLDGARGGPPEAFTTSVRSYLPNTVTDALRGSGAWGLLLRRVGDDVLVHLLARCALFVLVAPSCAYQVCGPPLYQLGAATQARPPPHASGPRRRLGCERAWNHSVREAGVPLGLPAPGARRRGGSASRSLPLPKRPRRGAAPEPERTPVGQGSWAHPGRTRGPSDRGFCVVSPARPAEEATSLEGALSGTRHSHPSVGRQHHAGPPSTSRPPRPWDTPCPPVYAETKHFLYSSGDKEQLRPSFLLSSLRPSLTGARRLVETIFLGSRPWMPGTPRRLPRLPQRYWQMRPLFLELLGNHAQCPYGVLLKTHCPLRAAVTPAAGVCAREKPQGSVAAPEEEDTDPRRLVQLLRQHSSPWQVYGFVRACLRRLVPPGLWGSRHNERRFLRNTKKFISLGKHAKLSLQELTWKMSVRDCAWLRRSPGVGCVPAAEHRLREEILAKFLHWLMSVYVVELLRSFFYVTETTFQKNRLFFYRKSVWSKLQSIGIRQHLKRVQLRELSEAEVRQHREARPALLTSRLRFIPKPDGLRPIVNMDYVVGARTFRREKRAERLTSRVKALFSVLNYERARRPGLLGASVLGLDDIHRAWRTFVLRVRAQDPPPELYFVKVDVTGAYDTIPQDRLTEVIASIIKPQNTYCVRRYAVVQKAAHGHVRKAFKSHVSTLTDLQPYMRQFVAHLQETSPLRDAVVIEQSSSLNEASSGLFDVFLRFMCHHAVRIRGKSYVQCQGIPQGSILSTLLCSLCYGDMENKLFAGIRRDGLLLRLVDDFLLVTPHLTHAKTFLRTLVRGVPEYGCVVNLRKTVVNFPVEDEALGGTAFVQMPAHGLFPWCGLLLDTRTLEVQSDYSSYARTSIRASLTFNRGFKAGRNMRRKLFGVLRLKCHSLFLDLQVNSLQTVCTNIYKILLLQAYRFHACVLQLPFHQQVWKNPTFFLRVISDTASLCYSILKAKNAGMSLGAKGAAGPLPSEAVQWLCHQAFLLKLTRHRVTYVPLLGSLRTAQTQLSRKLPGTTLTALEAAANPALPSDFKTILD
UniProt P98175: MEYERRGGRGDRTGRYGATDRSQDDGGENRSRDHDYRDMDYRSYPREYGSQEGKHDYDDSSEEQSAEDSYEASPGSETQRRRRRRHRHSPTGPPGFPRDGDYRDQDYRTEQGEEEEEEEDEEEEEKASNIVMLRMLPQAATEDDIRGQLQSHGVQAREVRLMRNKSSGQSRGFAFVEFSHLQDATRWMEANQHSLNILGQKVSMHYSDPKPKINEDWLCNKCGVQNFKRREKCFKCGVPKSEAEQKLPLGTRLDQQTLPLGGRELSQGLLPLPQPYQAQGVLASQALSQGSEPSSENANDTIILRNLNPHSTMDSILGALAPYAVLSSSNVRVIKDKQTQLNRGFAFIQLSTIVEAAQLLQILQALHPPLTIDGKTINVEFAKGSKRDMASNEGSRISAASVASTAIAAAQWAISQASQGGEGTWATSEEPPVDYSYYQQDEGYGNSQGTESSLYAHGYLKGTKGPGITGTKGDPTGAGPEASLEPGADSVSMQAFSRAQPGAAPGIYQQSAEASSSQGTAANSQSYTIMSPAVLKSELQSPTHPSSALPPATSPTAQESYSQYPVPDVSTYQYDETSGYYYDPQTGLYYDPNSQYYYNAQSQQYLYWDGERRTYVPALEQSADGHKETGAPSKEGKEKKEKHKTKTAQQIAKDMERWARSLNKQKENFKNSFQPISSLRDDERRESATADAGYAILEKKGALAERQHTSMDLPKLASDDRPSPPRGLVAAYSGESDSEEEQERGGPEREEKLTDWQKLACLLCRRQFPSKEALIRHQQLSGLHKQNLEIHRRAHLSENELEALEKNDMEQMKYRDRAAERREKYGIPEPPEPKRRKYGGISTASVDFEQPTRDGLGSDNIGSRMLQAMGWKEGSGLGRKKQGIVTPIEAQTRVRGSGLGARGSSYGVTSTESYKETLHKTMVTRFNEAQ

Legend:
Test in all cases: co-IP; endogenous proteins of A549 cells lysed in IP lysis buffer; antibodies at 4 °C overnight, Protein A/G magnetic beads, western blot; cells shNC, shPinX1 or shRBM10; for PinX1/TPP1 with hTERT also S-phase cells enriched by thymidine double blocking
[1] = target: T1, PIN2/TERF1-interacting telomerase inhibitor (PinX1) (human (endogenous in A549)) (UniProt Q96BK5)
T1 sequence: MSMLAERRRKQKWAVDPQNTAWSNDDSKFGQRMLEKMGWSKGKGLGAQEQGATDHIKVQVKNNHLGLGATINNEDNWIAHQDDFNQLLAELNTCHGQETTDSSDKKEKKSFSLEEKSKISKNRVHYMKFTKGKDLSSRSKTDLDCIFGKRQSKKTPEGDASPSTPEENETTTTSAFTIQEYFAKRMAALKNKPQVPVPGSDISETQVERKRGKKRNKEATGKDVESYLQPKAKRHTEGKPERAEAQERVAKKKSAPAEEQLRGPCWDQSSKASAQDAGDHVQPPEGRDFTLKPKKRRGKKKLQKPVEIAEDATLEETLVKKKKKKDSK

[2] = target: coilin (human (endogenous in A549)) (UniProt P38432)
[3] = target: hTERT (human (endogenous in A549)) (UniProt O14746)

- binding [1]: binds
Molecule: RNA-binding motif protein 10 (RBM10) (from UniProt P98175 1-930)

- binding [2]: binds
Molecule: hTERT (from UniProt O14746 1-1132)

- binding [3]: binds
B1: PIN2/TERF1-interacting telomerase inhibitor (PinX1) (protein, UniProt Q96BK5 1-328)
chain: T1 sequence
